These results are taken from PubChem BioAssay AID445 (National Center for Advancing Translational Sciences (NCATS), 2006).

SMILES strings stand for the structures. The list shows a part of the results. Shown are side measurements of this screen, not its main read-out; they come without a call. Compounds called inactive in the main read-out are mostly missing here. The note in brackets gives the kind of curve behind each potency; many fits are weak.

This experiment can be described thus: IkB Signaling. Particulars: ABC-DLBCL IkBa-CBG/CBR dual luciferase ratio (green luciferase fused to IkBa over red control in OCI-Ly3 lymphoma cells), 4 h; measured here: control luc red channel unless noted. The procedure, abridged:
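Luminescence ratio of IκBα-fused green versus native red beetle luciferase in OCI-Ly3 cells, 4 h post-doxycycline with compound; red signal alone, scaled from basal (0%) to zero light (-100%), flagged nonspecific or cytotoxic effects.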
For the compound `CCSc1nnc(NC(=O)c2cccc(OCc3c(C)noc3C)c2)s1`, the AC50 was 39.8 µM [falling, single point].

For `CSc1cccc(NC(=O)c2ccc3c(c2)CCCN3S(C)(=O)=O)c1`, the AC50 was 20 µM [falling, partial curve].

`CCCCCCn1c(/C=C/c2ccccc2)nc2ccccc21`: the AC50 is 25.1 µM [falling, partial curve].

As to `Cc1ccc(N2CC(NC(=O)C3CCCC3)CC2=O)cc1` (stereo not drawn), the AC50 is 7.94 µM [falling, single point].

With `CCOC(=O)N1CCC(Nc2nc3ccccc3nc2NS(=O)(=O)c2ccc(Cl)cc2)CC1`, the AC50 was 0.1 µM [falling, full curve].

For the compound `COc1cccc(N2CCN(C(=O)Cn3ncc4c3-c3ccccc3OC4)CC2)c1`, the AC50 is 31.6 µM [falling, single point].

With `O=C1C2C3C=CC(CO)(O3)C2C(=O)N1c1ccccc1-c1ccccc1` (stereo not drawn), the AC50 was 3.16 µM [falling, full curve].

Consider `Cc1ccc(C(=O)c2cn(CC(=O)Nc3ccc4c(c3)OCCO4)c3nc(C)ccc3c2=O)cc1`, for which the AC50 is 15.8 µM [falling, partial curve, poor fit].

Take `CCOc1ccc(Nc2c(S(=O)(=O)c3ccccc3)cnc3ccc(CC)cc23)cc1`: the AC50 was 20 µM [falling, partial curve].

Take `CSc1oc(-c2ccc(F)cc2)nc1S(=O)(=O)c1ccc(Br)cc1`: the concentration at half-maximal activity (AC50) was 12.6 µM [falling, partial curve].

As to `O=C(CC1Nc2ccccc2NC1=O)c1ccccc1` (stereo not drawn), the AC50 is 2.51 µM [falling, full curve].

As to `CC1=C(C(=O)Nc2cccnc2)C(c2ccc(F)cc2)n2nc(SCc3ccccc3)nc2N1` (stereo not drawn), the AC50 is 0.126 µM [falling, partial curve].

On to `N#CCSc1nnc(Cc2cccc3ccccc23)n1C1CCCCC1`, for which the AC50 is 15.8 µM [falling, partial curve].

For the compound `CCCCNC(=O)CSc1nc2ccccc2nc1Cc1ccccc1`, the AC50 was 25.1 µM [falling, partial curve].

As to `O=C(CCc1ccc(S(=O)(=O)N2CCCCC2)cc1)c1nnc(-c2ccccc2)o1`, the AC50 was 3.16 µM [falling, partial curve].

Turning to `N#Cc1c(SCC(N)=O)nc(-c2ccccc2)c2c1CCCC2`, the AC50 is 10 µM [falling, partial curve].

As to `Cc1ccc(-n2c(=O)c3cccnc3n2CC(=O)Nc2ccccc2C(F)(F)F)cc1C`, the half-maximal activity concentration (AC50) was 6.31 µM [rising, partial curve].

For the compound `COc1ccc(S(=O)(=O)N(C(=O)c2ccncc2)c2ccc3oc(C)c(C(C)=O)c3c2)cc1`, the AC50 is 12.6 µM [falling, partial curve].

Regarding `Cc1ccnc(NC(c2cc(C)ccc2O)c2ccc3cccnc3c2O)c1` (stereo not drawn), the AC50 was 20 µM [falling, partial curve].

For the compound `COc1ccc(-c2cn3c(n2)sc2cc(C(=O)NC4CCCCC4)ccc23)cc1`, the AC50 was 39.8 µM [falling, single point].

As to `COc1ccccc1N1CCN(Cc2cc(COC(C)C)c3cccnc3c2O)CC1`, the AC50 is 5.01 µM [falling, partial curve].

On to `CCOC(=O)C1CCCN(C(=O)Cn2nc(C)n3c(cc4c(OC)cccc43)c2=O)C1` (stereo not drawn), for which the AC50 is 25.1 µM [falling, partial curve].

For the compound `Cc1ccc(Nc2c(-c3cccc(Cl)c3)nc3cccc(C)n23)cc1`, the AC50 was 15.8 µM [falling, partial curve, poor fit].

As for `Cc1ccc(NC(=O)CSc2nc(=O)n(CCN3CCOCC3)c3c2CCC3)cc1Cl`, the AC50 was 20 µM [falling, partial curve].

For the compound `Cn1c(=O)nc2n(-c3ccc(Br)cc3)c3cccc(Cl)c3cc-2c1=O`, the AC50 is 6.31 µM [falling, partial curve].

With `CCCc1noc(-c2ccc(NCc3ccccc3OC)c([N+](=O)[O-])c2)n1`, the AC50 was 2.51 µM [rising, partial curve, poor fit].

For `Cc1[nH]c2ccccc2c1SCCNC(=O)c1ccc(F)cc1`, the AC50 is 15.8 µM [falling, partial curve].

Consider `CC(C)c1ccc(NC(=O)CSC2=Nc3ccccc3C3=NC(CC(=O)NCCc4ccccc4)C(=O)N23)cc1` (stereo not drawn), for which the AC50 was 25.1 µM [falling, single point].

Take `COc1ccc(Cl)cc1NC(=O)c1c(NCc2cccs2)sc2c1CCC(C)C2` (stereo not drawn): the AC50 was 12.6 µM [falling, partial curve].

On to `CCOc1ccccc1NC(=O)CSc1nc(-c2cccs2)cc(C(F)(F)F)n1`, for which the AC50 was 31.6 µM [falling, partial curve].

With `O=C(CSc1nnc(-c2ccco2)o1)c1ccccc1`, the AC50 is 15.8 µM [falling, partial curve].

As for `COc1ccc(N(C(=O)c2cc(OC)c(OC)c(OC)c2)S(=O)(=O)c2ccc(C)cc2)cc1`, the AC50 was 25.1 µM [rising, partial curve].

Take `CN(C)C1(CNC(=O)COc2cccc(Cl)c2)CCCCC1`: the AC50 is 15.8 µM [falling, partial curve].

Regarding `Cc1ccccc1C(=O)Nc1ccc2nc(SCC(=O)N(C)c3ccccc3)sc2c1`, the AC50 is 2 µM [falling, partial curve].

For `Cc1cccc(Cn2c(SCc3ccc(C(=O)NCc4cccs4)cc3)nc3ccncc32)c1`, the AC50 is 10 µM [falling, partial curve].

For `COc1cc(N)ccc1Cc1ccc(N)cc1OC`, the AC50 was 5.01 µM [falling, partial curve].

Regarding `CCOc1cc(C2CC(=O)Nc3c2c(C)nn3-c2nc(C)cc(C)n2)ccc1O` (stereo not drawn), the AC50 was 5.01 µM [rising, full curve, poor fit].

Take `Cc1ccc(-c2onc(C)c2C)cc1S(=O)(=O)NC1CCC(C)CC1` (stereo not drawn): the AC50 is 15.8 µM [falling, partial curve].

Take `COC(=O)c1cccnc1-n1c(=O)c2cccnc2n(CC(=O)Nc2cccc(C(F)(F)F)c2)c1=O`: the AC50 is 39.8 µM [falling, partial curve, poor fit].

For `O=C(/C=C/c1ccccc1)Nc1cc(-c2nc3ccccc3o2)ccc1Cl`, the AC50 was 15.8 µM [rising, partial curve].

With `FC(F)(F)c1cccc(N2CCN(Cc3nnc(-c4ccccc4)o3)CC2)c1`, the AC50 was 7.94 µM [falling, partial curve].

For the compound `CC(C)c1ccc(-c2noc(SCC(=O)N3CCCCC3)n2)cc1`, the AC50 is 25.1 µM [falling, single point].

As for `O=C(Nc1ccc(N2CCOCC2)c(Cl)c1)c1c(F)c(F)c(F)c(F)c1F`, the AC50 was 0.398 µM [falling, full curve].

Take `CCOC(=O)N1CCN(c2nc(C(F)(F)F)nc3c(C)cc(C)cc23)CC1`: the AC50 was 3.98 µM [falling, partial curve].

On to `Cc1cccc(Cc2c(C)nc3nc(SCC(=O)NC4CCCCC4)nn3c2C)c1`, for which the AC50 was 2.51 µM [falling, partial curve].

Turning to `Fc1ccc(-c2noc3ncnc(NCc4cccc(Cl)c4)c23)cc1`, the AC50 was 0.0398 µM [falling, full curve, poor fit].

Regarding `CSc1cccc(NS(=O)(=O)c2ccc3[nH]cc(C(=O)N4CCCCCC4)c(=O)c3c2)c1`, the AC50 was 15.8 µM [falling, single point].

Turning to `COc1ccccc1CNC(=O)c1cnn(-c2ccc(F)cc2F)c1C1CCN(C(=O)OC(C)(C)C)CC1`, the AC50 is 20 µM [falling, partial curve].

Consider `COc1ccc(-c2nnc(SCc3nnc(-c4ccc(Cl)cc4)o3)n2-c2ccccc2)cc1`, for which the AC50 is 12.6 µM [falling, partial curve].

`Cc1ccccc1OCC(=O)Nc1nnc(S(=O)(=O)N(C)c2ccccc2)s1`: the AC50 was 0.501 µM [rising, full curve].

On to `O=C(Cn1c(=O)n(-c2ccccc2)c(=O)c2c3c(sc21)CCCC3)Nc1ccc(F)cc1`, for which the AC50 was 15.8 µM [falling, partial curve].

`COc1ccccc1N1CCN(C(=O)c2cc3c(=O)n(Cc4cccnc4)ccc3nc2C)CC1`: the AC50 is 0.316 µM [rising, partial curve, poor fit].

For `CCC1Oc2ccccc2N(CC(=O)NCc2ccc(C)cc2)C1=O` (stereo not drawn), the AC50 is 31.6 µM [falling, single point].

For the compound `COc1cccc(NC(=O)CN2C(=O)C3(SCC(=O)N3c3cc(C)cc(C)c3)c3ccccc32)c1` (stereo not drawn), the AC50 is 12.6 µM [falling, partial curve, poor fit].

As for `COc1ccc2cc(C(c3nnnn3CCc3ccccc3)N3CCCC(C)C3)c(=O)[nH]c2c1` (stereo not drawn), the AC50 was 20 µM [falling, partial curve].

Take `O=C(Nc1ccc(Cl)cc1C(F)(F)F)c1cc(S(=O)(=O)NCc2ccccc2)ccc1F`: the AC50 was 39.8 µM [falling, partial curve].

As to `Cc1cc(C(=O)CSc2nnc(-c3cccs3)n2Cc2ccccc2)c(C)n1C`, the AC50 is 15.8 µM [falling, partial curve].

For `O=C(CSc1nccn1C1CCCC1)Nc1ccccc1`, the AC50 is 0.2 µM [falling, single point].

Take `COc1ccc(CNC(=O)CCS(=O)(=O)c2ccc3c(c2)CC(C)N3C(=O)C2CC2)cc1` (stereo not drawn): the AC50 is 39.8 µM [falling, partial curve].

With `O=C1c2ccccc2C(Nc2ccc(-c3nc4ccccc4[nH]3)cc2)N1Cc1ccco1` (stereo not drawn), the AC50 is 7.94 µM [falling, partial curve].

With `CCc1nnc(NC(=O)CSc2ncc(-c3ccccc3)n2CC)s1`, the AC50 is 31.6 µM [falling, single point].

Consider `Clc1ccc(-c2nnc(-c3cccc4ccccc34)o2)cc1Cl`, for which the AC50 was 0.0631 µM [falling, full curve].

As to `CCc1ccc(S(=O)(=O)c2nnn3c2nc(NCCC(C)C)c2cc(Cl)ccc23)cc1`, the AC50 is 0.158 µM [falling, full curve].

The term AC50 denotes the midpoint of the concentration-response curve, whichever way the signal moves.
